The supplement of paper PMC10849652
Some of the results follow.

By UniProt entry, the sequences of proteins in these tests, tags left out. Where a name states a change or a piece, a line headed by the entry shows the natural chain unless it says otherwise.
UniProt Q13523: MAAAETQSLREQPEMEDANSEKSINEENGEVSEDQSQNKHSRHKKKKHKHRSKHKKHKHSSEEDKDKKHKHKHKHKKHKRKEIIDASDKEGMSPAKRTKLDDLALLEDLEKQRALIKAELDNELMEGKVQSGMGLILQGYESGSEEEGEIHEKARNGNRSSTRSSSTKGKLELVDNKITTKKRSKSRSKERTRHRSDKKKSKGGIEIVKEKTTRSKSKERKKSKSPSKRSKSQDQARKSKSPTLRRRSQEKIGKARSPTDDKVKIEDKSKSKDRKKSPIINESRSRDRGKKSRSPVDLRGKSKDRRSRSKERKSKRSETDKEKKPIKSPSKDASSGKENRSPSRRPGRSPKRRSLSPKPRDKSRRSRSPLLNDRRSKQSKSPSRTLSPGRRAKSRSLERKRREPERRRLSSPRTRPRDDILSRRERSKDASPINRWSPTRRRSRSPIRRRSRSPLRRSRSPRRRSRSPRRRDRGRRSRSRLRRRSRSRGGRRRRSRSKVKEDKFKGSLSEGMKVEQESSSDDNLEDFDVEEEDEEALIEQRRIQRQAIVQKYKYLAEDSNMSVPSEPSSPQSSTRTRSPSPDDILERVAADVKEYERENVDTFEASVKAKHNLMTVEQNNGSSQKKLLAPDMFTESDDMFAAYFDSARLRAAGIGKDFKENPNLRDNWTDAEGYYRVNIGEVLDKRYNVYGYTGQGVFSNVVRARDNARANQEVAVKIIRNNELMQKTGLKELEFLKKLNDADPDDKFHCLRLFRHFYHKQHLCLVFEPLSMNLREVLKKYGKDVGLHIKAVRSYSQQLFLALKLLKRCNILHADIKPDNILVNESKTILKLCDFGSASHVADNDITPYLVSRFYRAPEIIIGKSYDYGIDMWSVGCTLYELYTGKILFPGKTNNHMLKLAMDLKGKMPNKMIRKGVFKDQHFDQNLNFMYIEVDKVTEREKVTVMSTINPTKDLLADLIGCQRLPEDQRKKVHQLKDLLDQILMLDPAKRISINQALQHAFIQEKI
UniProt P13861, whole entry, looked up: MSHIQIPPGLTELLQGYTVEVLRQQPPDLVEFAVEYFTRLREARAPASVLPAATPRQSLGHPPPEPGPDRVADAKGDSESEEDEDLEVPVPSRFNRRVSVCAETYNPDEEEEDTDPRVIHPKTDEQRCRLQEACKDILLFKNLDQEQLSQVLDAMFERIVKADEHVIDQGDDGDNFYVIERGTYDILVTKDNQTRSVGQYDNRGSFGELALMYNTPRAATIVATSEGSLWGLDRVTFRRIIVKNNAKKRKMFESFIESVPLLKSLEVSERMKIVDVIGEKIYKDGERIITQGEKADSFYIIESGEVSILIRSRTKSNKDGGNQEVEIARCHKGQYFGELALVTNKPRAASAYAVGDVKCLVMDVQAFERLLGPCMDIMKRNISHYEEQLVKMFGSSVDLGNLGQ
UniProt P07478, whole entry, looked up: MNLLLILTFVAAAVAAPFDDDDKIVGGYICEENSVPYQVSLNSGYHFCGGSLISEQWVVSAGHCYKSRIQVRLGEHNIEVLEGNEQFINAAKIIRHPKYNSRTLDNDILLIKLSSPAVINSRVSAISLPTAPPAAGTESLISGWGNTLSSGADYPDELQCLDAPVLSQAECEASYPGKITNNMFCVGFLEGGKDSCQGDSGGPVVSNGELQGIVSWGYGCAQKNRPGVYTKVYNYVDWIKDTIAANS
UniProt Q9UNN8: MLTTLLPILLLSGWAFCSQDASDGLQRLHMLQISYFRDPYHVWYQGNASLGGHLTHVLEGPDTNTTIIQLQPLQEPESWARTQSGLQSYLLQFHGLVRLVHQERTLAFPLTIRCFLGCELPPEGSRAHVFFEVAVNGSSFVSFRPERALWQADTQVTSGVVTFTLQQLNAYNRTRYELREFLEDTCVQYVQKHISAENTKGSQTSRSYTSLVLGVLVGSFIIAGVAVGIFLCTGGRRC
UniProt O14974: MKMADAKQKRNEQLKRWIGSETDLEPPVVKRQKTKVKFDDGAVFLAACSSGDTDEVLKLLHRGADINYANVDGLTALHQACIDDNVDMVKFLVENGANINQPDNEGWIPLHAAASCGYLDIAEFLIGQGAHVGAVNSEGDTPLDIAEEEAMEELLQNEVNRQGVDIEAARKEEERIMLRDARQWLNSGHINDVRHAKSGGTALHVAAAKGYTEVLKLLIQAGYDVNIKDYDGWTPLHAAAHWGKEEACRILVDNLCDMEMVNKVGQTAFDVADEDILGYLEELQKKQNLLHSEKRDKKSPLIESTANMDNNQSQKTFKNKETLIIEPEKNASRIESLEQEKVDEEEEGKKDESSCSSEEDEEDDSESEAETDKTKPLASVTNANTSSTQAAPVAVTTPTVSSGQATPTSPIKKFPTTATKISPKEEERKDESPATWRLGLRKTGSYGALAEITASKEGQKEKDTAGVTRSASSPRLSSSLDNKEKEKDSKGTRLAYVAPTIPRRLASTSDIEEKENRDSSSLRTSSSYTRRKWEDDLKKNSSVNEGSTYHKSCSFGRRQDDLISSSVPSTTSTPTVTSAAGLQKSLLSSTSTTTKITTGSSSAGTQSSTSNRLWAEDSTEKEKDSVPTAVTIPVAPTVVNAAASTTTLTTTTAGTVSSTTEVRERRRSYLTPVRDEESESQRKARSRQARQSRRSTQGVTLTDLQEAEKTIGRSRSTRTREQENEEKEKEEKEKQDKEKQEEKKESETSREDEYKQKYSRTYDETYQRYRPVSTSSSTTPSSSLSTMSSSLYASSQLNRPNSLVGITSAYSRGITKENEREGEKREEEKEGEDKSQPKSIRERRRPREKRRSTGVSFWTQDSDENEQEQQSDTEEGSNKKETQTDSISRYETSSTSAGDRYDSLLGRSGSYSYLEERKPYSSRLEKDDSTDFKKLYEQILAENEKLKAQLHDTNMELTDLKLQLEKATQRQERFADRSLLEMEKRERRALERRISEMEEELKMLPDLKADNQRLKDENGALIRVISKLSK
UniProt O75569: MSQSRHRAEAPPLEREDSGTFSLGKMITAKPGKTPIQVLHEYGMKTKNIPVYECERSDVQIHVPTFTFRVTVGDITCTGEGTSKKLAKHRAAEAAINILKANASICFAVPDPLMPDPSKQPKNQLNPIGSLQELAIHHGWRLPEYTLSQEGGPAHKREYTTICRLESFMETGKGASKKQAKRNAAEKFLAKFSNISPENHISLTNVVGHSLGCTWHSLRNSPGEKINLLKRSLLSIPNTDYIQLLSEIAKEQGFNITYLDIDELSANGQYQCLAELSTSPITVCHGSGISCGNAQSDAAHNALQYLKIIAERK
UniProt P62136, whole entry, looked up: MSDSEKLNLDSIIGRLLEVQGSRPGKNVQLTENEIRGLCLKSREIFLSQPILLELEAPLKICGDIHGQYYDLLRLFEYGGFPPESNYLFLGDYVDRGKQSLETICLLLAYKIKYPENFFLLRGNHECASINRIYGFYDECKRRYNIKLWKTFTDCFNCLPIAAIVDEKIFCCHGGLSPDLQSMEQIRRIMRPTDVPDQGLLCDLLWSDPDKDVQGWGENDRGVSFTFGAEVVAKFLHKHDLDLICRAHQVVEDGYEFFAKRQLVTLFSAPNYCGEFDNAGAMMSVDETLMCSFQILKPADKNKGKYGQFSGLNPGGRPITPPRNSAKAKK
UniProt Q96C90: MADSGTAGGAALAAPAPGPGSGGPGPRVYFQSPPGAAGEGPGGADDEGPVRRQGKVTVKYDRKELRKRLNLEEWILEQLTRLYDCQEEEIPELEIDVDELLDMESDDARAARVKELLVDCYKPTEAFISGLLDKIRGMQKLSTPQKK
UniProt P54619: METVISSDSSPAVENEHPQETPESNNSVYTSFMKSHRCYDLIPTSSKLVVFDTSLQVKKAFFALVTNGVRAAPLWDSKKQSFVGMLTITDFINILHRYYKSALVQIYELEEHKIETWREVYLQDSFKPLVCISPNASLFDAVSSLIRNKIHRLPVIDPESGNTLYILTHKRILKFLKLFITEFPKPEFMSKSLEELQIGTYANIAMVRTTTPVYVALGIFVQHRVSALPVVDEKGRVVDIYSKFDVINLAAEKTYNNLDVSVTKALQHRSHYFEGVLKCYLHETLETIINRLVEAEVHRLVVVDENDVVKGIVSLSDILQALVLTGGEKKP
UniProt P31323, whole entry, looked up: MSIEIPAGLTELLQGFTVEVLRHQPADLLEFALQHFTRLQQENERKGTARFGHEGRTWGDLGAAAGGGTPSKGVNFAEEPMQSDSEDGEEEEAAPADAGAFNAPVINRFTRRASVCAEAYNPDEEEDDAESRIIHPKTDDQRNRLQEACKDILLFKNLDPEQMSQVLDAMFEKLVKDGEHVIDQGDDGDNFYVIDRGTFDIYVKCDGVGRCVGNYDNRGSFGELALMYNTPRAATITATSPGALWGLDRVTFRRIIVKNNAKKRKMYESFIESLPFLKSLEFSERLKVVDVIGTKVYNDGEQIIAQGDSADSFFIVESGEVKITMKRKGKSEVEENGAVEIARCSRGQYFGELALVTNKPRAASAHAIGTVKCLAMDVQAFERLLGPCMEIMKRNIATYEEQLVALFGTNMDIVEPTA
UniProt Q14558: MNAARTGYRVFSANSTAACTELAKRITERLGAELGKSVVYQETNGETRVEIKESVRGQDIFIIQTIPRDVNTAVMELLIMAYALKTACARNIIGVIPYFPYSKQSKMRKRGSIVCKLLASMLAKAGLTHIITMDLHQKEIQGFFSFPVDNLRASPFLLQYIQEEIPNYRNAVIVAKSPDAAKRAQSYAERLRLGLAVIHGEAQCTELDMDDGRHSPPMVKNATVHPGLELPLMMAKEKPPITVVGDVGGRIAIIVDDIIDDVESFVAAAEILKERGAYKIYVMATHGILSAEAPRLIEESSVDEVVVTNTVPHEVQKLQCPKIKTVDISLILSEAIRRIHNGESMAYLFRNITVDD
UniProt Q04759: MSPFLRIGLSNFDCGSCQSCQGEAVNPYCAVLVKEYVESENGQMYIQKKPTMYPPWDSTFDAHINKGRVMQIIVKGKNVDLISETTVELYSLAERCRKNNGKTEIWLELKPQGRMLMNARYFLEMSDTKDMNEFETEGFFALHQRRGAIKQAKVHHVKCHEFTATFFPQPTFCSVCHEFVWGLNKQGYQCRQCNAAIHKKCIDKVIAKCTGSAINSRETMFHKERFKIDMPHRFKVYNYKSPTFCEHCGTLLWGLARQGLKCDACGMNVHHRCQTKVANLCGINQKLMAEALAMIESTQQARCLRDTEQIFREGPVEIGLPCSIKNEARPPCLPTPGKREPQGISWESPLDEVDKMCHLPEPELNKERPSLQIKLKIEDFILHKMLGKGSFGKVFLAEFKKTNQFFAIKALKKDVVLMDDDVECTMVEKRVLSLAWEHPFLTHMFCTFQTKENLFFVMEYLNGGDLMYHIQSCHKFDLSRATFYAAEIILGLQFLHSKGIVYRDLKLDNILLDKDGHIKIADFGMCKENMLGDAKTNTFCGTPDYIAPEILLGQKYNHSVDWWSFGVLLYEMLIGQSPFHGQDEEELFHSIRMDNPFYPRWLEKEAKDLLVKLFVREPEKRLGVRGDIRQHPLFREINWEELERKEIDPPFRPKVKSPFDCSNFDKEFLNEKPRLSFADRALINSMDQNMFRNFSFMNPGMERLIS
UniProt O15355: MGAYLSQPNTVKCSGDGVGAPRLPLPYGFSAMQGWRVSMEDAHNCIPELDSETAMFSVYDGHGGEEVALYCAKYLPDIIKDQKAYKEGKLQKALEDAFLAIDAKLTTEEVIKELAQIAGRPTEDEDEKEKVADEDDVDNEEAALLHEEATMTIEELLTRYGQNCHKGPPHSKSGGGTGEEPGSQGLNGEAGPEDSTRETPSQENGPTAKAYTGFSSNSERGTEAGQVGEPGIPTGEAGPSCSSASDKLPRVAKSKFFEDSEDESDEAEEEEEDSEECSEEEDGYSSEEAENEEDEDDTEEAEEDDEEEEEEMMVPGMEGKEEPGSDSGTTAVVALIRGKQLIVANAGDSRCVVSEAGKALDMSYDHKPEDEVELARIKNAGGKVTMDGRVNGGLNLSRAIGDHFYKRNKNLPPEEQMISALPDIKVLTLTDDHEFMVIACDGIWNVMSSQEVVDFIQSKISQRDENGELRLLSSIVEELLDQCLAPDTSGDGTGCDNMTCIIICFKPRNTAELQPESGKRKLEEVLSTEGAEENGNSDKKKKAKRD
UniProt Q9NR22, whole entry, looked up: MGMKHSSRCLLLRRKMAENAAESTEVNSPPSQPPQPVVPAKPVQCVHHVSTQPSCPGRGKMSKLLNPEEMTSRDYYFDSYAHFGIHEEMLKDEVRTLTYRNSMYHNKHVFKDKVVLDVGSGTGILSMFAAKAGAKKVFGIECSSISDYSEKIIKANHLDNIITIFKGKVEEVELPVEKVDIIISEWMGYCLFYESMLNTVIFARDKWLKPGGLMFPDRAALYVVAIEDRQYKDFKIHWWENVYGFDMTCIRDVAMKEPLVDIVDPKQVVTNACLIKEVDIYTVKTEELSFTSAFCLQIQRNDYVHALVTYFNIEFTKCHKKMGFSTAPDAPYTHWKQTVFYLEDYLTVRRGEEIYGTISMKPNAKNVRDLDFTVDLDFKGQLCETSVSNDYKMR

Compound: Cc1nc(Nc2n[nH]c3c2CN(C(=O)N[C@H](CN(C)C)c2ccccc2)C3(C)C)c2sccc2n1
Assay: log2 fold change, soluble protein after heating vs DMSO (PISA); higher = thermal stabilisation; K562 cells, 10 uM, 30 min; active = over 0.2 and 3.5 SD of the protein, either way, in both replicates (recomputed)
In short: (§1)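 K562 cells at 2×10^6 cells/mL were treated with 10 μM compound for 30 min. Aliquots were heated for 3 min across 48°C-58°C, pooled, and extracted in PBS with 0.5% NP-40 at 4°C; soluble protein was the supernatant after 21,000xg for 90 min. Soluble protein was quantified by TMTpro 16plex LC-MS/MS with channel sums equalised, and reported as log2 fold change in thermal stability against DMSO controls, with values from duplicates.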

log2 fold change, active:
PRPF4B (UniProt Q13523) -0.626
PRKAR2A (UniProt P13861) -0.606
PRKCD (UniProt Q05655) -0.261

log2 fold change, inactive:
PRSS2 (UniProt P07478) -0.195
PRKAR1B (UniProt P31321) 0.012
PROCR (UniProt Q9UNN8) -0.021
PPP1R12A (UniProt O14974) -0.302
PRKRA (UniProt O75569) -0.056
PPP6R1 (UniProt Q9UPN7) -0.031

A portion of the results above, as a working copy:
log2 fold change, inactive:
PRSS2 (UniProt P07478) -0.195
PRKAR1B (UniProt P31321) 0.012

Compound: Cc1nc(Nc2ncc(C(=O)Nc3c(C)cccc3Cl)s2)cc(N2CCN(CCO)CC2)n1 [dasatinib]
Assay: as above
In short: as §1

log2 fold change, inactive:
PPP1CA (UniProt P62136) 0.008
PPP1R14B (UniProt Q96C90) -0.225
PRKAG1 isoform 3 (UniProt P54619) -0.056
PPP6R3 isoform 5 (UniProt Q5H9R7) 0.011
PRKAR2B (UniProt P31323) -0.078
PRPSAP1 isoform 2 (UniProt Q14558) 0.07
PRKCQ (UniProt Q04759) -0.171
PPM1G (UniProt O15355) -0.097
PRKCB isoform 2 (UniProt P05771) -0.054
PRMT8 (UniProt Q9NR22) -0.064
PPP2R5C isoform 4 (UniProt Q13362) -0.058
PRKCSH (UniProt K7ELL7) -0.132
PRKAB2 (UniProt O43741) -0.16
